No constants are given. Whether binding was seen depends on the method and setting. Binding seen in cells or lysates may run through a third protein. Some binding calls cover weakened binding; strength is not graded here. For some assays here: Where a sequence is shown, tags or fusion partners need not be part of it.

The chains behind the UniProt entries cited, without tags or fusion partners.
UniProt Q9WV60: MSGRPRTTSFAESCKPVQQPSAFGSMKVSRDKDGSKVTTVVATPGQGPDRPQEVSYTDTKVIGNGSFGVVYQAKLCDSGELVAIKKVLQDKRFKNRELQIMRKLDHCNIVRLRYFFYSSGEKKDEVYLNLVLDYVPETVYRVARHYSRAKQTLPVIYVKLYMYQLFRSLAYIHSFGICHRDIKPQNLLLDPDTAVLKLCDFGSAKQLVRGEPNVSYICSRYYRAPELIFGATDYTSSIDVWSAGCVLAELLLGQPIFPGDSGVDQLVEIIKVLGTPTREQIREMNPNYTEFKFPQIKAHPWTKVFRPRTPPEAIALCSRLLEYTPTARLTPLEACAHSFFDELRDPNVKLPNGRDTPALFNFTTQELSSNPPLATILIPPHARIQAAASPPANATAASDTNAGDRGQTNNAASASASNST
UniProt O54943: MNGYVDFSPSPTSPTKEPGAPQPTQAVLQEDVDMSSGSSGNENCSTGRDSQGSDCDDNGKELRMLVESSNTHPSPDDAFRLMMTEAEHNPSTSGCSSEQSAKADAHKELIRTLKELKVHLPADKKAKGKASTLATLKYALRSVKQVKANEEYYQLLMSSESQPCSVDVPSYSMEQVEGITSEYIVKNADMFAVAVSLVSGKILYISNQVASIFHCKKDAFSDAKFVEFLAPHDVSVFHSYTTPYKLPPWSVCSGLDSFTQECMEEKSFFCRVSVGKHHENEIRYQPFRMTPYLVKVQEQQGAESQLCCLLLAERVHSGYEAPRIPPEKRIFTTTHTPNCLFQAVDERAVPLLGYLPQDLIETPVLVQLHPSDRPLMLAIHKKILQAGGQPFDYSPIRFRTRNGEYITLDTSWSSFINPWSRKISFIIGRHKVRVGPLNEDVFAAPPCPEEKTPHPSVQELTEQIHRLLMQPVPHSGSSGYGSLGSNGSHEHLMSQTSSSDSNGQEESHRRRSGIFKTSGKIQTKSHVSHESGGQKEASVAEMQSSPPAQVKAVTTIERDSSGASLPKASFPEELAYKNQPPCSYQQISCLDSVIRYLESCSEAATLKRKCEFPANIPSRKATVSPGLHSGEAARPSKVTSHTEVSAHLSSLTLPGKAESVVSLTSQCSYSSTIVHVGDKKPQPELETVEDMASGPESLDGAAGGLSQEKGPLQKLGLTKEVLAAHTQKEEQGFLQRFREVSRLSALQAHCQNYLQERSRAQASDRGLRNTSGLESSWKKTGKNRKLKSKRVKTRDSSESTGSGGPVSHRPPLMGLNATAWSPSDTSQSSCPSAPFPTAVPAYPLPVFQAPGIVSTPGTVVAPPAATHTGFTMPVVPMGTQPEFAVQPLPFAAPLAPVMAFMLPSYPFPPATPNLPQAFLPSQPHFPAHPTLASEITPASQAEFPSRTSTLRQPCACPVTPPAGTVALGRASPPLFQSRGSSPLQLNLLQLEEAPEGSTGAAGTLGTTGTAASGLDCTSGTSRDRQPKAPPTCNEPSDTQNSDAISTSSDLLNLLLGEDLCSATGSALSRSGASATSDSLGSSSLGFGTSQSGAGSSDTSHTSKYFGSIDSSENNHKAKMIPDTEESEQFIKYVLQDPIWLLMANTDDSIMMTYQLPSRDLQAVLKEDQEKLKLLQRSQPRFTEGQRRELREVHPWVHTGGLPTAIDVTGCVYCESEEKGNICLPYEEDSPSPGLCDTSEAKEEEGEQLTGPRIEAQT
UniProt P49841: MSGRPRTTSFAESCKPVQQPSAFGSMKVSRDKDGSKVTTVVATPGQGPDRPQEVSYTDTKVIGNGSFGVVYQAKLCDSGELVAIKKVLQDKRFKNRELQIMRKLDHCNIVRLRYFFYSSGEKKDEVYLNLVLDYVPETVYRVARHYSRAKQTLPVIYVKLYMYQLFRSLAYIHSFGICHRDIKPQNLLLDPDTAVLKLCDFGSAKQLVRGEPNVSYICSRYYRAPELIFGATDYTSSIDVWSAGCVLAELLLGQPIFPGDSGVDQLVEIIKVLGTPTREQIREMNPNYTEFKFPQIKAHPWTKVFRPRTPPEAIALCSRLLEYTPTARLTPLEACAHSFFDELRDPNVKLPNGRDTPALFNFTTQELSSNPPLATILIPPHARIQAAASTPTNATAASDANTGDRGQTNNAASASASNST

Experiment [1] deals with GSK3β phosphorylated at Ser9, mouse, endogenous in Per2wt/GSK3βwt MEFs (mouse (endogenous in MEFs)) (UniProt Q9WV60). The experiment in a line: co-IP; endogenous proteins of Per2wt/GSK3βwt MEFs, non-LDR control and 12 h after LDR (10 cGy); IP with anti-Per2 and blot with anti-pGSK3β(Ser9), and the reverse; 500 μg extract in 1x RIPA buffer, antibody on Protein A or G magnetic beads, overnight at 4°C.

Experiment [2] has as its target T1, Human Per2 with V5 tag, stably overexpressed in 293T cells (Per2-OE) (human) (UniProt O15055).
T1 sequence: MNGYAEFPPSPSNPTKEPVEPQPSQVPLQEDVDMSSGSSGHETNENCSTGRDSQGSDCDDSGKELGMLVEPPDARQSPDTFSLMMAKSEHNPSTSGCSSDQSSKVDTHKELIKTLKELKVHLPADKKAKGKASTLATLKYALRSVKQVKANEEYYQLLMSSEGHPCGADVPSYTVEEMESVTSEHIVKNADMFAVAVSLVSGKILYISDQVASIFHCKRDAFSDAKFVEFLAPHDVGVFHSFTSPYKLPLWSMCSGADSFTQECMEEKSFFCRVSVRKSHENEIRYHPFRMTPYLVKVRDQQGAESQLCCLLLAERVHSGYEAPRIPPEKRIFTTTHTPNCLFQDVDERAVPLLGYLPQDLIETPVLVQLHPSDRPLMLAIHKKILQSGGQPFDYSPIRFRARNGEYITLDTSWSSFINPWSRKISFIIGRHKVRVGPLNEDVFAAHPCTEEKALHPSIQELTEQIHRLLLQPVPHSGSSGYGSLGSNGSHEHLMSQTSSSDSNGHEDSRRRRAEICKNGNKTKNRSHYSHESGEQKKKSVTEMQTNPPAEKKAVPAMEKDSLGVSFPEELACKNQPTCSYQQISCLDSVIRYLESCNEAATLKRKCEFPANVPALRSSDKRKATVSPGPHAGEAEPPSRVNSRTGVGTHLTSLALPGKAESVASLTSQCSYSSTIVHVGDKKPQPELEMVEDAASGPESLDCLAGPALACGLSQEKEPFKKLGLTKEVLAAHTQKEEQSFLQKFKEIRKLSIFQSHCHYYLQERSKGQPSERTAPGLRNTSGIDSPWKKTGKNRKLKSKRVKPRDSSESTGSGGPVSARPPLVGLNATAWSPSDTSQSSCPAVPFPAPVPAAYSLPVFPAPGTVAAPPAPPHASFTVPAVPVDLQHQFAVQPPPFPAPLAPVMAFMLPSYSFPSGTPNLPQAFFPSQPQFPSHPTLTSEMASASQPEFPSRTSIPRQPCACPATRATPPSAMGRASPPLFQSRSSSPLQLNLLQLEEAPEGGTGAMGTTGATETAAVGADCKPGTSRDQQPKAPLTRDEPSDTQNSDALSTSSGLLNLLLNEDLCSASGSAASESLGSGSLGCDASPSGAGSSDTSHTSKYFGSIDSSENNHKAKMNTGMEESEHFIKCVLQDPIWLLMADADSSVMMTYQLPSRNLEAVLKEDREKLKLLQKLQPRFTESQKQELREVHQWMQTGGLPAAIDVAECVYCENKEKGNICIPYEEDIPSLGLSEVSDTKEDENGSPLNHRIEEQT
The experiment in a line: co-IP; 293T cells stably overexpressing Per2-V5, transfected with HA-GSK3β wild type or S9A, collected 12 h after LDR (10 cGy); extract in 1x RIPA buffer, antibody on Protein A or G magnetic beads, overnight at 4°C.

Regarding “PERIOD 2 (PER2), mouse, endogenous in Per2wt/GSK3βwt MEFs (from UniProt O54943 1-1257)”, the binding result in experiment [1] is on record as “binds”.
Turning to “HA-tagged wild-type GSK3β, transfected into Per2-OE 293T cells (from UniProt P49841 1-420) (enzyme)”, the binding result in experiment [2] is “binds”.

(Values after PMC9708791.)
